Binding data for 3 substances are collected here from publication PMC4387713.

Amino acid sequences for entries named in this document (tags omitted).
UniProt Q9H9S0: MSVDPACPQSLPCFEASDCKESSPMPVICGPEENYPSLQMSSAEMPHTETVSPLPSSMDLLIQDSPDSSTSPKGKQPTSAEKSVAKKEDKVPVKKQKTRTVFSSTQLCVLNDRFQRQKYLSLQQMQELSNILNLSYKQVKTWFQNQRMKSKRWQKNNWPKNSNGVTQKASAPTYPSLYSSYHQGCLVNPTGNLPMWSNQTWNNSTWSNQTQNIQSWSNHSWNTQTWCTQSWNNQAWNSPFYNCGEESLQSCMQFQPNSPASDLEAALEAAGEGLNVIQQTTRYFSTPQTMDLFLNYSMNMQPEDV
UniProt Q9C005: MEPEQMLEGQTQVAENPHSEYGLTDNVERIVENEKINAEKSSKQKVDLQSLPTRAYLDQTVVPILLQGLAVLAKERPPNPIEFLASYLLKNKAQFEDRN
UniProt Q9UMN6: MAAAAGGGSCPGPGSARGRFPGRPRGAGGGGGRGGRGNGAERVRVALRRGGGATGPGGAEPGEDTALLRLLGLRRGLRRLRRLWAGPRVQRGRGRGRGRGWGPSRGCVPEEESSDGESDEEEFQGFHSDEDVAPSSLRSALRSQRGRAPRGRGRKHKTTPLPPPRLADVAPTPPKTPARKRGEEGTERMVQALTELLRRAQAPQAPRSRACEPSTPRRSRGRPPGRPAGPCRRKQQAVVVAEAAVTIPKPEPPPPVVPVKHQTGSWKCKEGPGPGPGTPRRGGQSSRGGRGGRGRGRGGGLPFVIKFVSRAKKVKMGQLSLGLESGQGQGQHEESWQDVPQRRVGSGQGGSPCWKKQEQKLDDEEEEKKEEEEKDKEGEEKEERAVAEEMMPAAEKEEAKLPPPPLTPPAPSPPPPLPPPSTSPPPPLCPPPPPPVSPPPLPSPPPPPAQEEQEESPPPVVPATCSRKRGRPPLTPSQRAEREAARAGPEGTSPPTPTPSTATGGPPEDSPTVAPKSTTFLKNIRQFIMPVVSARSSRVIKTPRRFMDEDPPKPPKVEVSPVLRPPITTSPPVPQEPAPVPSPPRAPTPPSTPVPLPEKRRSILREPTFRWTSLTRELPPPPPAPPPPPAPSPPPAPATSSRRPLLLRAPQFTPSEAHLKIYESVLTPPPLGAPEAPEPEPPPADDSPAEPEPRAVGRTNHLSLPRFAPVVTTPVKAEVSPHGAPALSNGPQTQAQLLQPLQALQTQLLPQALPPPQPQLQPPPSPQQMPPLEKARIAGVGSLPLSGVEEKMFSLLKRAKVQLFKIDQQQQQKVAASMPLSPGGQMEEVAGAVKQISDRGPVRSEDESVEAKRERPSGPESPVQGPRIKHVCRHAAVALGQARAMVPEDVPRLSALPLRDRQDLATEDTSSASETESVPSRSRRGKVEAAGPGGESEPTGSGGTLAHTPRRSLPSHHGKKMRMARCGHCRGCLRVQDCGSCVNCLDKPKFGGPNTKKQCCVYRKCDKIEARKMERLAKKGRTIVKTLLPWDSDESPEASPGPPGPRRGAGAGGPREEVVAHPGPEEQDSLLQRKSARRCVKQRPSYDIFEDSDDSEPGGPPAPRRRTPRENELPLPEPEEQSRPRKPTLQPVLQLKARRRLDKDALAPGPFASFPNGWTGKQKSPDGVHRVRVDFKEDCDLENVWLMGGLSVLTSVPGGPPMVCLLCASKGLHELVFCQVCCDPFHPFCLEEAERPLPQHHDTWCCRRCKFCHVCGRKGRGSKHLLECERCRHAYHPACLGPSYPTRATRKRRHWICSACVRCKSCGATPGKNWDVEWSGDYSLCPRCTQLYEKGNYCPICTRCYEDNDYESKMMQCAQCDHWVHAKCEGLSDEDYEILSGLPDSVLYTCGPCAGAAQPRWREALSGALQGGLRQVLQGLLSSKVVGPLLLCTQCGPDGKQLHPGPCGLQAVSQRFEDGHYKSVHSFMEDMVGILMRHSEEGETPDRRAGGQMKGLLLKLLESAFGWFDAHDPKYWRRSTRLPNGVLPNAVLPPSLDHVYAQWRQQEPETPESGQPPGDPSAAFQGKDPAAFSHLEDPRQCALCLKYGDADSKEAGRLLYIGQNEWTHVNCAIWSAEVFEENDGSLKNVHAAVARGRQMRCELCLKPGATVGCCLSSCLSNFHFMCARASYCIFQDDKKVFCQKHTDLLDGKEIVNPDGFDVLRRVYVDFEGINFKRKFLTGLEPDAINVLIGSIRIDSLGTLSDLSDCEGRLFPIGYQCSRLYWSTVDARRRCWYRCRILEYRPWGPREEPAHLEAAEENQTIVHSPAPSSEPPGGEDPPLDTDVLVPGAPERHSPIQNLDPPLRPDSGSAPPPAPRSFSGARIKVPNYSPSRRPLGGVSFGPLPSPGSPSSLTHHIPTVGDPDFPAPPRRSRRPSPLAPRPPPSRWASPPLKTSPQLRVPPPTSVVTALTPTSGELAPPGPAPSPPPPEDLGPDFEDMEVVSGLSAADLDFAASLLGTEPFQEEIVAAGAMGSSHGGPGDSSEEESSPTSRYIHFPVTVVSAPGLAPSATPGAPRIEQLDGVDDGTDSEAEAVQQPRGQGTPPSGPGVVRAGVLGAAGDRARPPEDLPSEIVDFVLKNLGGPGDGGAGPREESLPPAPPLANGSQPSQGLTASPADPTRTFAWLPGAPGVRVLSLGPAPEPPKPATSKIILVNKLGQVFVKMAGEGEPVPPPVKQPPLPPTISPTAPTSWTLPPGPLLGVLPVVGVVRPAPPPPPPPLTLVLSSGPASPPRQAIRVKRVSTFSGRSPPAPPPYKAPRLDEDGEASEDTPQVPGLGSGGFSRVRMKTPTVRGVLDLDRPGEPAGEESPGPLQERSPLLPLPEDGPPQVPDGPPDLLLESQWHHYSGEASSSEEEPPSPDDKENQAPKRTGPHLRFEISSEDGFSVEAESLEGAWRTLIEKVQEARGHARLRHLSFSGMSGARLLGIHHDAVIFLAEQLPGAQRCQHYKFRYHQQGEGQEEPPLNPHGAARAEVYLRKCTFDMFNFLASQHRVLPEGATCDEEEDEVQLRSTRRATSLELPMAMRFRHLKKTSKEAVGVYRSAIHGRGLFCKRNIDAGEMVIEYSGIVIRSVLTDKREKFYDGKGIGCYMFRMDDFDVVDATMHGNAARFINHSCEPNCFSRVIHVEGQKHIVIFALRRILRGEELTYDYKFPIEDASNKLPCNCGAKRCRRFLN

Results are given in words; binding and its absence hold for the method and conditions named. Binding seen in cells or lysates may run through a third protein. Some results given as binding are weak or reduced against the parent protein; the word gives no strength.

The target in assay [1] is NANOG (human (endogenous in H9 hESCs)) (UniProt Q9H9S0). Briefly: co-IP; co-immunoprecipitation with NANOG from hESCs (Supplemental Fig. S5C); Western blot; endogenous proteins. In general terms: A western blot detects proteins with antibodies after separation by electrophoresis.
Assay [2] has as its target DPY30 (human (endogenous in H9 hESCs)) (UniProt Q9C005). Kind of assay: co-IP; DPY30 or control (IgG) immunoprecipitation from nuclear extracts of hESCs; Western blot; input is 5% of the material; co-immunoprecipitation also done without Activin/Nodal signaling or without NANOG expression (Supplemental Fig. S5D,E: interaction with DPY30 impaired).

DPY30 (from UniProt Q9C005 1-99): in assay [1], the binding entry is listed as “binds”.

As to “MLL2/KMT2B (from UniProt Q9UMN6 1-2715) (enzyme)”, the binding entry in assay [1] is listed as “binds”. With NANOG (from UniProt Q9H9S0 1-305), the binding entry in assay [2] is “binds”.
